{"sequences": {"note": "Protein sequences, listed by entry. Tags and fused reporters are not part of them.", "UniProt P41595, whole entry": "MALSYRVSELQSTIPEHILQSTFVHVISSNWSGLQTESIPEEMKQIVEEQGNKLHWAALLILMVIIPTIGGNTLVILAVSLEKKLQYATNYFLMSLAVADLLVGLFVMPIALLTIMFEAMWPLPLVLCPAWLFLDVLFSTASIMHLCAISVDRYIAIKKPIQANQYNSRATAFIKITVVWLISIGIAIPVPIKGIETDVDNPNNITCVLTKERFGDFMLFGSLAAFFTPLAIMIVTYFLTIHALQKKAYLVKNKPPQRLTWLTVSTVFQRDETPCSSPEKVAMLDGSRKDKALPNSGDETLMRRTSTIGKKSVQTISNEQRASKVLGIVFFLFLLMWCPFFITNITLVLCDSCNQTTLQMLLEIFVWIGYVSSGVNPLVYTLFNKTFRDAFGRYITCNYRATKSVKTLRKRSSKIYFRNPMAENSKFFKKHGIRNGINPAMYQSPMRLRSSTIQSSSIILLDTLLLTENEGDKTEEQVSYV"}, "source": "BindingDB's records for doi:10.1007/s00210-004-0951-4", "about": "(Vernalis Research, 2004)", "molecular_target": "5-hydroxytryptamine receptor 2B (Homo sapiens, UniProt P41595)", "data": [{"molecule": "CC[C@@H](CO)NC(=O)[C@@H]1C=C2c3cccc4c3c(cn4C)C[C@H]2N(C)C1", "values": [{"measurement": "Ki", "value": 0.36, "unit": "nM"}]}]}
